Experimental data: patent US20240124418A1 (BioTheryX, Inc., priority 2020, published 2024)
Some results were stated once for a whole list of compounds, not compound by compound.

System: PDE4D, in particular, PDE4D short isoform
Assay: Protein degradation assay, western blot, PDE4D in A549 cells
Assay type: cell-based
Conditions: 24 h treatment, 'as high as about' = upper value for the group
Experimental: Example B2. Protein Degradation Assay
A549 cells were grown in RPMI 1640 media supplemented with 10% fetal bovine serum, streptomycin, and penicillin. The cells were plated in 6-well plates at 300,000 cells/well in the growth media. After overnight incubation, the cells were treated with DMSO (control) or a compound at predetermined concentrations (e.g., 10 nM, 100 nM, 1 μM, 3 μM, or 10 μM) for 24 h at 37° C. under 5% CO2. Whole cell extracts were prepared using an immunoprecipitation (IP) lysis buffer. The cells were washed once in PBS, and the cell pellets were resuspended in the IP lysis buffer and incubated for 15 min on ice. Cells debris was removed by centrifugation and the cleared whole cell lysates were transferred to new tubes for further analysis.
For a western blot analysis, the whole cell protein extracts were separated on 4-12% SDS-polyacrylamide gels, transferred to nitrocellulose, and probed with primary antibodies. Membranes were subsequently washed and probed with IRDYE® secondary antibodies. The signals were detected using an ODYSSEY® Imaging System. The antibodies used in the assay included anti-PDE4B antibody; anti-PDE4D antibodies (top, bottom, and short isoform); β-actin mouse monoclonal antibody; IRDYE® 680RD goat anti-rabbit antibody; and IRDYE® 800CW goat anti-mouse antibody. The compounds provided herein are PDE4 protein degraders.

SMILES	PDE4D (in particular PDE4D short isoform) degradation relative to DMSO [%]
CCOc1cc([C@@H](CS(C)(=O)=O)N2C(=O)c3cccc(NC(=O)CCOCCOCCOCCNc4cccc5c4C(=O)N(C4CCC(=O)NC4=O)C5=O)c3C2=O)ccc1OC (stereo partly drawn) [Compound A10, 3-(2-(2-(2-((2-(2,6-Dioxopiperidin-3-yl)-1,3-dioxoisoindolin-4-yl)amino)ethoxy)-ethoxy)ethoxy)-N-(2-((S)-1-(3-ethoxy-4-methoxyphenyl)-2-(methylsulfonyl)ethyl)-1,3-dioxoisoindolin-4-yl)propanamide]	≤ 95
CCOc1cc([C@@H](CS(C)(=O)=O)N2C(=O)c3cccc(NC(=O)CCOCc4ccc(COCCNc5cccc6c5C(=O)N(C5CCC(=O)NC5=O)C6=O)cc4)c3C2=O)ccc1OC (stereo partly drawn) [Compound A11, 3-((4-((2-((2-(2,6-Dioxopiperidin-3-yl)-1,3-dioxoisoindolin-4-yl)amino)ethoxy)-methyl)benzyl)oxy)-N-(2-((S)-1-(3-ethoxy-4-methoxyphenyl)-2-(methylsulfonyl)ethyl)-1,3-dioxoisoindolin-4-yl)propanamide]	≤ 95
CCOc1cc([C@@H](CS(C)(=O)=O)N2C(=O)c3cccc(NC(=O)CCCCCCCCNCc4ccc(OCc5scc6c5CN(C5CCC(=O)NC5=O)C6=O)cc4)c3C2=O)ccc1OC (stereo partly drawn) [Compound A12, 9-((4-((5-(2,6-Dioxopiperidin-3-yl)-4-oxo-5,6-dihydro-4H-thieno[3,4-c]pyrrol-1-yl)methoxy)benzyl)amino)-N-(2-((S)-1-(3-ethoxy-4-methoxyphenyl)-2-(methylsulfonyl)ethyl)-1,3-dioxoisoindolin-4-yl)nonanamide]	≤ 95
CCOc1cc([C@@H](CS(C)(=O)=O)N2C(=O)c3cccc(NC(=O)CCCCCCCCN4CCC(c5cc(F)cc6c5CN(C5CCC(=O)NC5=O)C6=O)CC4)c3C2=O)ccc1OC (stereo partly drawn) [Compound A13, 9-(4-(2-(2,6-Dioxopiperidin-3-yl)-6-fluoro-1-oxoisoindolin-4-yl)piperidin-1-yl)-N-(2-((S)-1-(3-ethoxy-4-methoxyphenyl)-2-(methylsulfonyl)ethyl)-1,3-dioxoisoindolin-4-yl)nonanamide]	≤ 95
CCOc1cc([C@@H](CS(C)(=O)=O)N2C(=O)c3cc(CCCCCCCCCCCCN4CCC(c5cc(F)cc6c5CN(C5CCC(=O)NC5=O)C6=O)CC4)cc(NC(C)=O)c3C2=O)ccc1OC (stereo partly drawn) [Compound A14, N-(6-(12-(4-(2-(2,6-Dioxopiperidin-3-yl)-6-fluoro-1-oxoisoindolin-4-yl)piperidin-1-yl)dodecyl)-2-((S)-1-(3-ethoxy-4-methoxyphenyl)-2-(methylsulfonyl)ethyl)-1,3-dioxoisoindolin-4-yl)acetamide]	≤ 95
CCOc1cc([C@@H](CS(C)(=O)=O)N2C(=O)c3cccc(NC(=O)CCCCCCCCC4CCN(c5cccc6c5C(=O)N(C5CCC(=O)NC5=O)C6=O)CC4)c3C2=O)ccc1OC (stereo partly drawn) [Compound A15, 9-{1-[2-(2,6-Dioxopiperidin-3-yl)-1,3-dioxo-2,3-dihydro-1H-isoindol-4-yl]piperidin-4-yl}-N-{2-[(1S)-1-(3-ethoxy-4-methoxyphenyl)-2-methanesulfonylethyl]-1,3-dioxo-2,3-dihydro-1H-isoindol-4-yl}nonanamide]	≤ 95
CCOc1cc([C@@H](CS(C)(=O)=O)N2C(=O)c3cccc(NC(=O)CCCCCCCCNCc4ccc(COc5cccc6c5CN(C5CCC(=O)NC5=O)C6=O)cc4)c3C2=O)ccc1OC (stereo partly drawn) [Compound A16, 9-({[4-({[2-(2,6-Dioxopiperidin-3-yl)-1-oxo-2,3-dihydro-1H-isoindol-4-yl]oxy}-methyl)phenyl]methyl}amino)-N-{2-[(1S)-1-(3-ethoxy-4-methoxyphenyl)-2-methanesulfonylethyl]-1,3-dioxo-2,3-dihydro-1H-isoindol-4-yl}nonanamide]	≤ 95
CCOc1cc([C@@H](CS(C)(=O)=O)N2C(=O)c3c(CCCCCCCCCCCCN4CCC(c5cc(F)cc6c5CN(C5CCC(=O)NC5=O)C6=O)CC4)ccc(NC(C)=O)c3C2=O)ccc1OC (stereo partly drawn) [Compound A17, N-[7-(12-{4-[2-(2,6-Dioxopiperidin-3-yl)-6-fluoro-1-oxo-2,3-dihydro-1H-isoindol-4-yl]piperidin-1-yl}dodecyl)-2-[(1S)-1-(3-ethoxy-4-methoxyphenyl)-2-methanesulfonylethyl]-1,3-dioxo-2,3-dihydro-1H-isoindol-4-yl]acetamide]	≤ 95
CCOc1cc([C@@H](CS(C)(=O)=O)N2C(=O)c3c(N)ccc(CCCCCCCCCCCCN4CCC(c5cc(F)cc6c5CN(C5CCC(=O)NC5=O)C6=O)CC4)c3C2=O)ccc1OC (stereo partly drawn) [Compound A18, 4-Amino-7-(12-{4-[2-(2,6-Dioxopiperidin-3-yl)-6-fluoro-1-oxo-2,3-dihydro-1H-isoindol-4-yl]piperidin-1-yl}dodecyl)-2-[(1S)-1-(3-ethoxy-4-methoxyphenyl)-2-methanesulfonylethyl]-2,3-dihydro-1H-isoindole-1,3-dione]	≤ 95
CCOc1cc([C@@H](CS(C)(=O)=O)N2C(=O)c3cccc(NC(=O)CCCCCCCCN4CCC(C#Cc5cc6c(cc5F)C(=O)N(C5CCC(=O)NC5=O)C6)CC4)c3C2=O)ccc1OC (stereo partly drawn) [Compound A20, 9-(4-{2-[2-(2,6-Dioxopiperidin-3-yl)-6-fluoro-1-oxo-2,3-dihydro-1H-isoindol-5-yl]ethynyl}piperidin-1-yl)-N-{2-[(1S)-1-(3-ethoxy-4-methoxyphenyl)-2-methanesulfonylethyl]-1,3-dioxo-2,3-dihydro-1H-isoindol-4-yl}nonanamide]	≤ 95
CCOc1cc([C@@H](CS(C)(=O)=O)N2C(=O)c3cccc(NC(=O)CCCCCCCN4CCC(c5cc6c(cc5F)C(=O)N(C5CCC(=O)NC5=O)C6)CC4)c3C2=O)ccc1OC (stereo partly drawn) [Compound A22, 8-{4-[2-(2,6-Dioxopiperidin-3-yl)-6-fluoro-1-oxo-2,3-dihydro-1H-isoindol-5-yl]piperidin-1-yl}-N-{2-[(1S)-1-(3-ethoxy-4-methoxyphenyl)-2-methanesulfonylethyl]-1,3-dioxo-2,3-dihydro-1H-isoindol-4-yl}octanamide]	≤ 95
CCOc1cc([C@@H](CS(C)(=O)=O)N2C(=O)c3cccc(NC(=O)CCCCCCNCc4ccc(OCc5scc6c5CN([C@H]5CCC(=O)NC5=O)C6=O)cc4)c3C2=O)ccc1OC [Compound A38, 7-((4-((5-((S)-2,6-Dioxopiperidin-3-yl)-4-oxo-5,6-dihydro-4H-thieno[3,4-c]pyrrol-1-yl)methoxy)benzyl)amino)-N-(2-((S)-1-(3-ethoxy-4-methoxyphenyl)-2-(methylsulfonyl)ethyl)-1,3-dioxoisoindolin-4-yl)heptanamide]	≤ 95
CCOc1cc([C@@H](CS(C)(=O)=O)N2C(=O)c3cccc(NC(=O)CCCCNCc4ccc(OCc5scc6c5CN(C5CCC(=O)NC5=O)C6=O)cc4)c3C2=O)ccc1OC (stereo partly drawn) [Compound A39, 5-((4-((5-(2,6-Dioxopiperidin-3-yl)-4-oxo-5,6-dihydro-4H-thieno[3,4-c]pyrrol-1-yl)methoxy)benzyl)amino)-N-(2-((S)-1-(3-ethoxy-4-methoxyphenyl)-2-(methylsulfonyl)ethyl)-1,3-dioxoisoindolin-4-yl)pentanamide]	≤ 95
